Patent US20060029649A1, “Stabilized antimicrobial agents” (priority 2004, published 2006)
At least one compound was matched to its structure with a doubt left.

Assay: Thermal stability of IPBC in lubricant mixtures, oven at 180° C., amount determined by HPLC
Format: physicochemical
Settings: relative to initial biocide
Procedure: Except for example 2 wherein 100% IPBC was used, the antimicrobial agent was admixed with the lubricating agent at room temperature overnight in a roller mixer. Samples of the resulting mixtures were then placed in a conventional oven at 180° C. for the time specified below (5 minutes and 132 minutes). The amount of antimicrobial agent in the sample, initially and after heating, was determined by HPLC. All samples were contained in dark bottles and covered with aluminum foil during heating.
The samples were prepared and tested as described in Examples 1-5.

With `CCCCNC(=O)OCC#CI` [Example 2, 3-iodo-2-propynyl butyl carbamate] the “% Recovery/ 5 min.” value (5 minutes at 180° C.) was 83% and the “% Recovery/ 132 min.” value (132 minutes at 180° C.) was 0%.
